Data published in article PMC9769124.
No constants are given. Whether binding was seen depends on the method and setting. Binding seen in cells or lysates may run through a third protein. Some results given as binding are weak or reduced against the parent protein; the word gives no strength.

By UniProt entry, the sequences of proteins in these tests, tags left out.
UniProt Q9HCE7: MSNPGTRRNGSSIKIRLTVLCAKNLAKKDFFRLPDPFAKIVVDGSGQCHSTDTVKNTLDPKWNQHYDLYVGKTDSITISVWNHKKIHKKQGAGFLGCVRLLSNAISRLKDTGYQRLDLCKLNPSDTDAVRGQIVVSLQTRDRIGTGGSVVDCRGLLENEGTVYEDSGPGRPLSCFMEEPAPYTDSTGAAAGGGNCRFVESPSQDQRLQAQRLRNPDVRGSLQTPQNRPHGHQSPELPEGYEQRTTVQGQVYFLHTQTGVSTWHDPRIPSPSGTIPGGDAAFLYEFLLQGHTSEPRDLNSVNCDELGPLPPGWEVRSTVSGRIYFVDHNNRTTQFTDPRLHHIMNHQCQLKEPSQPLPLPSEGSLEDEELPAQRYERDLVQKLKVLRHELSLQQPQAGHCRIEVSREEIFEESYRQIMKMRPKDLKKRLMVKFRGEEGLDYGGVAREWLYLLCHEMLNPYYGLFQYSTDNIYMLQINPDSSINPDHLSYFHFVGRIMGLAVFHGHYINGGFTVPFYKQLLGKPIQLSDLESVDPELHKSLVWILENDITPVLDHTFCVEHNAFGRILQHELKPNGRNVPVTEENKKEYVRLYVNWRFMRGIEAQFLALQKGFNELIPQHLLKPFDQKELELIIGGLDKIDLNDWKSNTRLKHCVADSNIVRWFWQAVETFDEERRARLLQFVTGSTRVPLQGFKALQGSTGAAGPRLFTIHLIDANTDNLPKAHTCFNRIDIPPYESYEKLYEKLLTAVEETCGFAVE
UniProt Q8WUY9: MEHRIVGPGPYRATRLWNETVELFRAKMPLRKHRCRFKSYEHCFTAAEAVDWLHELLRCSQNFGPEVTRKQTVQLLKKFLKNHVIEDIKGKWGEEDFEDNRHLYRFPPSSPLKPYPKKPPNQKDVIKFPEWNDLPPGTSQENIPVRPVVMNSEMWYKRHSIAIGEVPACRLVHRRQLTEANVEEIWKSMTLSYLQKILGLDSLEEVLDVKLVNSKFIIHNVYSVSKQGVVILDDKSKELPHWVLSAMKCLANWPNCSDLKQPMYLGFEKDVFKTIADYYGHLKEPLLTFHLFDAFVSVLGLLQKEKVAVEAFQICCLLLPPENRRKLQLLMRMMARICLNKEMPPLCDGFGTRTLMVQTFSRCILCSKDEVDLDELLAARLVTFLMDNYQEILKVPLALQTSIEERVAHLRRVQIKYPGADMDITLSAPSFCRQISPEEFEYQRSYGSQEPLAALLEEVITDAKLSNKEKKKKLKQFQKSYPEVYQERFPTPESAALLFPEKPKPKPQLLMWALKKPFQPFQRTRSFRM

Target: SMURF1 (human) (UniProt Q9HCE7)
Experiment: co-IP; cell lysate, 1.0-1.2 mg protein; precipitated with IgG (control) or SMURF1 antibody and protein A/G beads; immunoblot

binding: binds
Substance: DEP domain-containing protein 1B (from UniProt Q8WUY9 1-529)
